In patent US20220348675A1 (I MAB BIOPHARMA US, published 2022):
Positions count from the first letter of the chain named. Results are given in words; binding and its absence hold for the method and conditions named. Some binding calls cover weakened binding; strength is not graded here. Blank lines part the entries; values can stand above or below the binder they belong to.

Amino acid sequences for entries named in this document (tags omitted). A change or cut given only in a name is not applied to a line headed by its entry. Residues count along the entry.
UniProt Q07011: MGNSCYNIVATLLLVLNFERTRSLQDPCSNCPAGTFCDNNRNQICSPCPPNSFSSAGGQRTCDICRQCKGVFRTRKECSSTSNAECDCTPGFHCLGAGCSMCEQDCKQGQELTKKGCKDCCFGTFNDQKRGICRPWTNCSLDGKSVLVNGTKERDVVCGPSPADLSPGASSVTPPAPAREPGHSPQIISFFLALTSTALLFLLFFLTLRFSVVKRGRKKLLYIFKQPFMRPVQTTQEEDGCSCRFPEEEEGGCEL
4-1BB expressed on cells (HEK293-4-1BB, 4-1BB-Jurkat, GloResponse NFκB-luc2/4-1BB Jurkat): residues 24-255 of Q07011
4-1BB (form not stated): residues 24-186 of Q07011

Legend:
[1] = biological target: 4-1BB expressed on cells (HEK293-4-1BB, 4-1BB-Jurkat, GloResponse NFκB-luc2/4-1BB Jurkat) (UniProt Q07011); test: flow cytometry on HEK293-4-1BB cells (FIG. 3)
[2] = biological target: 4-1BB expressed on cells (HEK293-4-1BB, 4-1BB-Jurkat, GloResponse NFκB-luc2/4-1BB Jurkat) (UniProt Q07011); test: Flow cytometry on HEK293-4-1BB cells, PE anti-human IgG, MFI
[3] = biological target: human 4-1BB-Fc protein (human) (UniProt Q07011); test: ELISA, coated human 4-1BB-Fc
[4] = biological target: 4-1BB expressed on cells (HEK293-4-1BB, 4-1BB-Jurkat, GloResponse NFκB-luc2/4-1BB Jurkat) (UniProt Q07011); test: flow cytometry on 4-1BB-Jurkat cells
4-1BB (form not stated) = 4-1BB (form not stated) (UniProt Q07011); test: BLI, Octet Red 96

B1: 1A10 anti-4-1BB monoclonal antibody (antibody, V domains shown)
VH: EVQLLESGGGLVQPGGSLRLSCAASGFTFSSYDMSWVRQAPGKGLEWVSWISYSGGSIYYADSVKGRFTISRDNSKNTLYLQMNSLRAEDTAVYYCARDAQRNSMREFDYWGQGTLVTVSS
VL: QSVLTQPPSASGTPGQRVTISCSGSSSNIGNNYVTWYQQLPGTAPKLLIYADSHRPSGVPDRFSGSKSGTSASLAISGLRSEDEADYYCATWDYSLSGYVFGGGTKLTVL
binding [1]: binds | binding [2]: binds

B5: 41B01.01 anti-4-1BB antibody (antibody, V domains shown)
VH: B1 VH
VL: B1 VL with Q16R
binding [4]: binds

B7: 41B01.02 anti-4-1BB antibody (antibody, V domains shown)
VH: B1 VH with N103Q
VL: B1 VL with Q16R
notes: Full human anti-4-1BB antibody
binding [4]: binds

The next lines start with the values.

binding [3]: binds | binding [4]: binds
B2: 41B01.03 anti-4-1BB antibody (antibody, V domains shown)
VH: B1 VH with A100G, N103Q
VL: B1 VL

binding [3]: binds | binding [4]: binds
B3: 41B01.04 anti-4-1BB antibody (antibody, V domains shown)
VH: B1 VH with S104A
VL: B1 VL

binding (4-1BB (form not stated)): binds | binding [4]: binds
B4: 41B01 anti-4-1BB antibody (antibody, V domains shown)
VH: B1 VH with A100G
VL: B1 VL with Q16R

binding (4-1BB (form not stated)): binds | binding [4]: binds
B6: 41B02 anti-4-1BB antibody (antibody, V domains shown)
VH: EVQLLESGGGLVQPGGSLRLSCAASGFTFSGYDMSWVRQAPGKGLEWVSVIYPDDGNTYYADSVKGRFTISRDNSKNTLYLQMNSLRAEDAAVYYCAKHGGQKPTTKSSSAYGMDGWGQGTLVTVSS
VL: B1 VL with Q16R
